Experimental data from US20250249110A1 (SICHUAN UNIVERSITY, priority 2016, published 2025).

Experiment: peptide made by a vendor (peptide synthesis; Fmoc-Rink Amide MBHA Resin (0.36 mmol/g); HBTU/HOBt/DIEA)
Details: whole synthesis, scale of the general procedure 1.0 g resin (0.36 mmol/g)

Substance: Chol-suc-VQWRIRVAVIRK-NH2
- final HPLC purity: more than 95%
